Measured data: PubChem BioAssay AID504791 (Drosophila RNAi Screening Center, 2011)
The screen tested about 23,000 reagents; this is an unselected part of those with a known target gene and a result. In the full data, 199 (0.86%) are marked active. 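Plate-scaled ratios behind the calls are not deposited; printed light signals are raw; many rows marked increased or decreased are still called inactive.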 The numbers tell different reagents against one gene apart. Not given: the direction of the score.

- Screen: 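Genes whose knock-down strengthens or weakens small-RNA reporter silencing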 (primary screen)
- Cell system: Drosophila S2-derived reporter cells
- Reagents: long dsRNA against Drosophila genes, about 150-250 ng dsRNA per well (siRNA assay); about 80-120 ng (miRNA assay)
- Timing: about 5 days (siRNA assay); about 4 days (miRNA assay)
- Treatment: copper sulfate induction of reporters: 25 µM (siRNA assay); 200 mM stated (miRNA assay), 1-2 days before reading
- Read-out: 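Per-well ratio of Renilla over firefly light, expressed relative to that plate's average ratio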
- Units: stable assay Renilla, run 1 in luminescence; stable assay firefly, run 1 in luminescence
- Call rule: 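a well was a first-pass pick when its plate-scaled ratio rose above 1.5 (siRNA assay) or 1.6 (miRNA assay), or dropped below 0.6; a gene counted only if two separate dsRNAs agreed on retest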

CG11227 → stable assay Renilla, run 1 = 5276; stable assay firefly, run 1 = 2.79e5; activity call = inactive
CG13075 → stable assay Renilla, run 1 = 6538; stable assay firefly, run 1 = 3.65e5; activity call = inactive
Gr98a (Gustatory receptor 98a) → stable assay Renilla, run 1 = 4220; stable assay firefly, run 1 = 4.68e5; activity call = inactive
Pde6 (Phosphodiesterase 6) #1 → stable assay Renilla, run 1 = 9808; stable assay firefly, run 1 = 5.73e5; activity call = inactive
Pde6 (Phosphodiesterase 6) #2 → stable assay Renilla, run 1 = 6411; stable assay firefly, run 1 = 3.92e5; activity call = inactive
Pde6 (Phosphodiesterase 6) #3 → stable assay Renilla, run 1 = 6851; stable assay firefly, run 1 = 3.13e5; activity call = inactive
Adck5 (aarF domain containing kinase 5) → stable assay Renilla, run 1 = 5782; stable assay firefly, run 1 = 3.31e5; activity call = inactive
PIG-G (Phosphatidylinositol glycan anchor biosynthesis class G) → stable assay Renilla, run 1 = 13105; stable assay firefly, run 1 = 2.01e6; activity call = inactive
Obp8a (Odorant-binding protein 8a) → stable assay Renilla, run 1 = 4932; stable assay firefly, run 1 = 3.66e5; activity call = inactive
Sqor (Sulfide quinone oxidoreductase) → stable assay Renilla, run 1 = 7923; stable assay firefly, run 1 = 4.71e5; activity call = inactive
CG14667 → stable assay Renilla, run 1 = 7202; stable assay firefly, run 1 = 3.87e5; activity call = inactive
Pak3 → stable assay Renilla, run 1 = 7482; stable assay firefly, run 1 = 2.87e5; activity call = inactive
dib (disembodied) → stable assay Renilla, run 1 = 7978; stable assay firefly, run 1 = 4.38e5; activity call = inactive
sgll (sugarlethal) → stable assay Renilla, run 1 = 7627; stable assay firefly, run 1 = 4.87e5; activity call = inactive
Las (Lipoic acid synthase) → stable assay Renilla, run 1 = 8762; stable assay firefly, run 1 = 3.25e5; activity call = inactive
CG9570 → stable assay Renilla, run 1 = 5384; stable assay firefly, run 1 = 5.30e5; activity call = inactive
dj-1beta → stable assay Renilla, run 1 = 5927; stable assay firefly, run 1 = 3.77e5; activity call = inactive
CG30037 → stable assay Renilla, run 1 = 5316; stable assay firefly, run 1 = 2.63e5; activity call = inactive
CG30010 → stable assay Renilla, run 1 = 5007; stable assay firefly, run 1 = 4.45e5; activity call = inactive
CG32486 #1 → stable assay Renilla, run 1 = 11326; stable assay firefly, run 1 = 5.15e5; activity call = inactive
CG32486 #2 → stable assay Renilla, run 1 = 6370; stable assay firefly, run 1 = 5.31e5; activity call = inactive
CG34034 → stable assay Renilla, run 1 = 5298; stable assay firefly, run 1 = 4.66e5; activity call = inactive
Tsp42Ee (Tetraspanin 42Ee) → stable assay Renilla, run 1 = 7202; stable assay firefly, run 1 = 4.86e5; activity call = inactive
CG33098 → stable assay Renilla, run 1 = 3619; stable assay firefly, run 1 = 3.24e5; activity call = inactive
CG14186 → stable assay Renilla, run 1 = 10588; stable assay firefly, run 1 = 4.38e5; activity call = inactive
CG8326 → stable assay Renilla, run 1 = 8151; stable assay firefly, run 1 = 4.19e5; activity call = inactive
Mhc (Myosin heavy chain) → stable assay Renilla, run 1 = 7028; stable assay firefly, run 1 = 4.96e5; activity call = inactive
Tbh (Tyramine beta hydroxylase) → stable assay Renilla, run 1 = 5676; stable assay firefly, run 1 = 2.80e5; activity call = inactive

Copied from the entries so far, 2 entries:
CG30010 → stable assay Renilla, run 1 = 5007; stable assay firefly, run 1 = 4.45e5; activity call = inactive
CG32486 #1 → stable assay Renilla, run 1 = 11326; stable assay firefly, run 1 = 5.15e5; activity call = inactive
